Earlier results on one compound are cited in article PMC3747594 (ACS Chemical Biology, 2013).

The subject of the series is K2P2.1 (TREK-1). Particulars: cited from earlier work.

Regarding `CNCCC(Oc1ccc(C(F)(F)F)cc1)c1ccccc1` (stereo not shown) [fluoxetine], the IC50 was about 10 µM.
